Experimental data published in article PMC7717877.
Results are given in words; binding and its absence hold for the method and conditions named. Binding seen in cells or lysates may run through a third protein. Some results given as binding are weak or reduced against the parent protein; the word gives no strength.

Amino acid sequences for entries named in this document (tags omitted).
UniProt O35732: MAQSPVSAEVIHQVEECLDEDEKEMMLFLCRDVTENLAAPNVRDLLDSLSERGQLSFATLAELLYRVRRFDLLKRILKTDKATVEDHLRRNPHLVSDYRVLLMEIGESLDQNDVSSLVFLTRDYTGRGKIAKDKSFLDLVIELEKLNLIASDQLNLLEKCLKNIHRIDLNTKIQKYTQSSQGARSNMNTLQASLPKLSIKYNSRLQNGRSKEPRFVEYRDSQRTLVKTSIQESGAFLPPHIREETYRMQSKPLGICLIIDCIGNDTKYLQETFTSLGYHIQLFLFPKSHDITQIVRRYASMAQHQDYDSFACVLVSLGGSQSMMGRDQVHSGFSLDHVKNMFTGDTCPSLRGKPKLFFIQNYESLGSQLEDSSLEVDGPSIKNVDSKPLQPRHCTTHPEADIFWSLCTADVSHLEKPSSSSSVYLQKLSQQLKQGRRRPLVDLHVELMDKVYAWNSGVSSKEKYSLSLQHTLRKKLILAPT

Molecular target: FLICE-like inhibitory protein (mouse (endogenous in RAW264.7)) (UniProt O35732)
Assay: co-IP; endogenous co-IP from lysates of RAW264.7 macrophages (control, LPS + ATP + si-NC or LPS + ATP + si-hnRNPK groups); precipitated with antibodies against FLIP and protein G-sepharose beads, washed with PBS, western blot

- binding: binds
Substance: Heterogeneous nuclear ribonucleoprotein K (from UniProt P61979 1-463)
